Source: patent publication US20180320217A1, “METHODS FOR SAMPLING AND MEASURING ORAL LAVAGE PROTEINS” (The Procter & Gamble Company, priority 2017, published 2018)

Test system: proteins in oral lavage
Assay: Abundance of proteins in human oral lavage (SomaLogic), TABLE 1
Format: in vivo
Conditions: for Means (Original Scale) High bleeder BL / Means (Original Scale) High bleeder W4 / Means (Original Scale) Low bleeder BL: abundance in oral lavage; for Means (Original Scale) High bleeder BL: high bleeders (gingivitis); for Means (Original Scale) High bleeder BL / Means (Original Scale) Low bleeder BL: baseline; for Means (Original Scale) High bleeder W4 / Fold Change High bleeder W4 vs High bleeder BL: high bleeders; for Means (Original Scale) High bleeder W4: week 4 of investigative products; for Means (Original Scale) Low bleeder BL: low bleeders (healthy); for Fold Change High bleeder W4 vs High bleeder BL / Fold Change High bleeder BL vs Low bleeder BL: oral lavage; for Fold Change High bleeder W4 vs High bleeder BL: week 4 of treatment vs baseline; for Fold Change High bleeder BL vs Low bleeder BL: high vs low bleeders at baseline

B1: Semaphorin-6A (protein, UniProt Q9H2E6 19-1030, looked up)
Semaphorin-6A: GFPEDSEPISISHGNYTKQYPVFVGHKPGRNTTQRHRLDIQMIMIMNGTLYIAARDHIYTVDIDTSHTEEIYCSKKLTWKSRQADVDTCRMKGKHKDECHNFIKVLLKKNDDALFVCGTNAFNPSCRNYKMDTLEPFGDEFSGMARCPYDAKHANVALFADGKLYSATVTDFLAIDAVIYRSLGESPTLRTVKHDSKWLKEPYFVQAVDYGDYIYFFFREIAVEYNTMGKVVFPRVAQVCKNDMGGSQRVLEKQWTSFLKARLNCSVPGDSHFYFNILQAVTDVIRINGRDVVLATFSTPYNSIPGSAVCAYDMLDIASVFTGRFKEQKSPDSTWTPVPDERVPKPRPGCCAGSSSLERYATSNEFPDDTLNFIKTHPLMDEAVPSIFNRPWFLRTMVRYRLTKIAVDTAAGPYQNHTVVFLGSEKGIILKFLARIGNSGFLNDSLFLEEMSVYNSEKCSYDGVEDKRIMGMQLDRASSSLYVAFSTCVIKVPLGRCERHGKCKKTCIASRDPYCGWIKEGGACSHLSPNSRLTFEQDIERGNTDGLGDCHNSFVALNGHSSSLLPSTTTSDSTAQEGYESRGGMLDWKHLLDSPDSTDPLGAVSSHNHQDKKGVIRESYLKGHDQLVPVTLLAIAVILAFVMGAVFSGITVYCVCDHRRKDVAVVQRKEKELTHSRRGSMSSVTKLSGLFGDTQSKDPKPEAILTPLMHNGKLATPGNTAKMLIKADQHHLDLTALPTPESTPTLQQKRKPSRGSREWERNQNLINACTKDMPPMGSPVIPTDLPLRASPSHIPSVVVLPITQQGYQHEYVDQPKMSEVAQMALEDQAATLEYKTIKEHLSSKSPNHGVNLVENLDSLPPKVPQREASLGPPGASLSQTGLSKRLEMHHSSSYGVDYKRSYPTNSLTRSHQATTLKRNNTNSSNSSHLSRNQSFGRGDNPPPAPQRVDSIQVHSSQPSGQAVTVSRQPSLNAYNSLTRSGLKRTPSLKPDVPPKPSFAPLSTSMKPNDACT
Means (Original Scale) High bleeder BL: 3637 | Means (Original Scale) High bleeder W4: 2503 | Means (Original Scale) Low bleeder BL: 396 | Fold Change High bleeder W4 vs High bleeder BL: 0.68 | Fold Change High bleeder BL vs Low bleeder BL: 11.58

B2: Ribosome maturation protein SBDS (protein, UniProt Q9Y3A5 2-250, looked up)
Ribosome maturation protein …: SIFTPTNQIRLTNVAVVRMKRAGKRFEIACYKNKVVGWRSGVEKDLDEVLQTHSVFVNVSKGQVAKKEDLISAFGTDDQTEICKQILTKGEVQVSDKERHTQLEQMFRDIATIVADKCVNPETKRPYTVILIERAMKDIHYSVKTNKSTKQQALEVIKQLKEKMKIERAHMRLRFILPVNEGKKLKEKLKPLIKVIESEDYGQQLEIVCLIDPGCFREIDELIKKETKGKGSLEVLNLKDVEEGDEKFE
Means (Original Scale) High bleeder BL: 595 | Means (Original Scale) High bleeder W4: 263 | Means (Original Scale) Low bleeder BL: 230 | Fold Change High bleeder W4 vs High bleeder BL: 0.60 | Fold Change High bleeder BL vs Low bleeder BL: 2.55

B3: RGM domain family member B (protein, UniProt Q6NW40 46-413, looked up)
Repulsive guidance molecule B: GDCQQPAQCRIQKCTTDFVSLTSHLNSAVDGFDSEFCKALRAYAGCTQRTSKACRGNLVYHSAVLGISDLMSQRNCSKDGPTSSTNPEVTHDPCNYHSHAGAREHRRGDQNPPSYLFCGLFGDPHLRTFKDNFQTCKVEGAWPLIDNNYLSVQVTNVPVVPGSSATATNKITIIFKAHHECTDQKVYQAVTDDLPAAFVDGTTSGGDSDAKSLRIVERESGHYVEMHARYIGTTVFVRQVGRYLTLAIRMPEDLAMSYEESQDLQLCVNGCPLSERIDDGQGQVSAILGHSLPRTSLVQAWPGYTLETANTQCHEKMPVKDIYFQSCVFDLLTTGDANFTAAAHSALEDVEALHPRKERWHIFPSSGN
Means (Original Scale) High bleeder BL: 9860 | Means (Original Scale) High bleeder W4: 4375 | Means (Original Scale) Low bleeder BL: 1389 | Fold Change High bleeder W4 vs High bleeder BL: 0.52 | Fold Change High bleeder BL vs Low bleeder BL: 6.17

B4: Secreted frizzled-related protein 1 (protein, UniProt Q8N474 32-314, looked up)
Secreted frizzled-related …: SEYDYVSFQSDIGPYQSGRFYTKPPQCVDIPADLRLCHNVGYKKMVLPNLLEHETMAEVKQQASSWVPLLNKNCHAGTQVFLCSLFAPVCLDRPIYPCRWLCEAVRDSCEPVMQFFGFYWPEMLKCDKFPEGDVCIAMTPPNATEASKPQGTTVCPPCDNELKSEAIIEHLCASEFALRMKIKEVKKENGDKKIVPKKKKPLKLGPIKKKDLKKLVLYLKNGADCPCHQLDNLSHHFLIMGRKVKSQYLLTAIHKWDKKNKEFKNFMKKMKNHECPTFQSVFK
Means (Original Scale) High bleeder BL: 4666 | Means (Original Scale) High bleeder W4: 2482 | Means (Original Scale) Low bleeder BL: 1212 | Fold Change High bleeder W4 vs High bleeder BL: 0.59 | Fold Change High bleeder BL vs Low bleeder BL: 3.68

B5: RNA-binding protein 39 (protein, UniProt Q14498 2-530, looked up)
RNA-binding protein 39: ADDIDIEAMLEAPYKKDENKLSSANGHEERSKKRKKSKSRSRSHERKRSKSKERKRSRDRERKKSKSRERKRSRSKERRRSRSRSRDRRFRGRYRSPYSGPKFNSAIRGKIGLPHSIKLSRRRSRSKSPFRKDKSPVREPIDNLTPEERDARTVFCMQLAARIRPRDLEEFFSTVGKVRDVRMISDRNSRRSKGIAYVEFVDVSSVPLAIGLTGQRVLGVPIIVQASQAEKNRAAAMANNLQKGSAGPMRLYVGSLHFNITEDMLRGIFEPFGRIESIQLMMDSETGRSKGYGFITFSDSECAKKALEQLNGFELAGRPMKVGHVTERTDASSASSFLDSDELERTGIDLGTTGRLQLMARLAEGTGLQIPPAAQQALQMSGSLAFGAVAEFSFVIDLQTRLSQQTEASALAAAASVQPLATQCFQLSNMFNPQTEEEVGWDTEIKDDVIEECNKHGGVIHIYVDKNSAQGNVYVKCPSIAAAIAAVNALHGRWFAGKMITAAYVPLPTYHNLFPDSMTATQLLVPSRR
Means (Original Scale) High bleeder BL: 2206 | Means (Original Scale) High bleeder W4: 1128 | Means (Original Scale) Low bleeder BL: 276 | Fold Change High bleeder W4 vs High bleeder BL: 0.48 | Fold Change High bleeder BL vs Low bleeder BL: 6.91

B6: Secreted and transmembrane protein 1 (protein, UniProt Q8WVN6 29-248, looked up)
Secreted and transmembrane …: QNEGWDSPICTEGVVSVSWGENTVMSCNISNAFSHVNIKLRAHGQESAIFNEVAPGYFSRDGWQLQVQGGVAQLVIKGARDSHAGLYMWHLVGHQRNNRQVTLEVSGAEPQSAPDTGFWPVPAVVTAVFILLVALVMFAWYRCRCSQQRREKKFFLLEPQMKVAALRAGAQQGLSRASAELWTPDSEPTPRPLALVFKPSPLGALELLSPQPLFPYAADP
Means (Original Scale) High bleeder BL: 1633 | Means (Original Scale) High bleeder W4: 905 | Means (Original Scale) Low bleeder BL: 400 | Fold Change High bleeder W4 vs High bleeder BL: 0.64 | Fold Change High bleeder BL vs Low bleeder BL: 3.57

B7: Serine protease 27 (protein, UniProt Q9BQR3 35-290, looked up)
Serine protease 27: MVGGQDTQEGEWPWQVSIQRNGSHFCGGSLIAEQWVLTAAHCFRNTSETSLYQVLLGARQLVQPGPHAMYARVRQVESNPLYQGTASSADVALVELEAPVPFTNYILPVCLPDPSVIFETGMNCWVTGWGSPSEEDLLPEPRILQKLAVPIIDTPKCNLLYSKDTEFGYQPKTIKNDMLCAGFEEGKKDACKGDSGGPLVCLVGQSWLQAGVISWGEGCARQNRPGVYIRVTAHHNWIHRIIPKLQFQPARLGGQK
Means (Original Scale) High bleeder BL: 10968 | Means (Original Scale) High bleeder W4: 6186 | Means (Original Scale) Low bleeder BL: 7376 | Fold Change High bleeder W4 vs High bleeder BL: 0.55 | Fold Change High bleeder BL vs Low bleeder BL: 1.83
